Results as given in the supplement of paper PMC10849652.
The other results are listed elsewhere or left out.

By UniProt entry, the sequences of proteins in these tests, tags left out. Where a name states a change or a piece, a line headed by the entry shows the natural chain unless it says otherwise.
UniProt P43121, whole entry, looked up: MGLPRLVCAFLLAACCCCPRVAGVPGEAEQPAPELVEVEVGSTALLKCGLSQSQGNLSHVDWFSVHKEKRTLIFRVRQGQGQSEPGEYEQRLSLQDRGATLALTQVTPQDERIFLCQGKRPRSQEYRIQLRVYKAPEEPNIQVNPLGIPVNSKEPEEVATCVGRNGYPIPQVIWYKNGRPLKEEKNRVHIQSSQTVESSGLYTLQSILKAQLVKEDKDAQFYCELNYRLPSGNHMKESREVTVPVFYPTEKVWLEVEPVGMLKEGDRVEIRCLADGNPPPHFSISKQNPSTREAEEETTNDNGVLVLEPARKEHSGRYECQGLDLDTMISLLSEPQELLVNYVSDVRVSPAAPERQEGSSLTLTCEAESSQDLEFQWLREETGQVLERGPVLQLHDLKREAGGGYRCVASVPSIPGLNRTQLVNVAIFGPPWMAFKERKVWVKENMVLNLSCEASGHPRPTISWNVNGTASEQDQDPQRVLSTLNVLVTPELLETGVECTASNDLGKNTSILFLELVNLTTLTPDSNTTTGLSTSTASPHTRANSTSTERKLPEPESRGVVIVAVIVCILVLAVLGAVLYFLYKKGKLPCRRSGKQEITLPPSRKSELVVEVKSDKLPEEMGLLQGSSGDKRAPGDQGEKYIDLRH
UniProt Q9NR56: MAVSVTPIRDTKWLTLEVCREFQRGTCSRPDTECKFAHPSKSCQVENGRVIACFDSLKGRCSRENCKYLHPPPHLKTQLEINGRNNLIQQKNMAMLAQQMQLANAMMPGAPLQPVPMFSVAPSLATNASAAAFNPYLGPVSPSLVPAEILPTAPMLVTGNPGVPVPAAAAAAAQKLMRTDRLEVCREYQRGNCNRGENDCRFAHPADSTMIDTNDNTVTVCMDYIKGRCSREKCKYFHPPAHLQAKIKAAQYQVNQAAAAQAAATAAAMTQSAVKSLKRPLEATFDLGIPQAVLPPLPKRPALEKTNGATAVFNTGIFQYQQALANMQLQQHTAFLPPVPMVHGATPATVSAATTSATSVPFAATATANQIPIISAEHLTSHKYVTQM
UniProt Q9Y316: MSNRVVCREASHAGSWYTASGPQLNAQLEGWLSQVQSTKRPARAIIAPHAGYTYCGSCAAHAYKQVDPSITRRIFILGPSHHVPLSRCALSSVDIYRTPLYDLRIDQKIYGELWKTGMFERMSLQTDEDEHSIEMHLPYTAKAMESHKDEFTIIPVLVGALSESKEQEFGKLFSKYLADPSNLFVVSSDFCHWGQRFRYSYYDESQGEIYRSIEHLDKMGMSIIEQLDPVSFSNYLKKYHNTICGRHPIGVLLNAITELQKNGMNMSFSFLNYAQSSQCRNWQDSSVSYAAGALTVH
UniProt O43513: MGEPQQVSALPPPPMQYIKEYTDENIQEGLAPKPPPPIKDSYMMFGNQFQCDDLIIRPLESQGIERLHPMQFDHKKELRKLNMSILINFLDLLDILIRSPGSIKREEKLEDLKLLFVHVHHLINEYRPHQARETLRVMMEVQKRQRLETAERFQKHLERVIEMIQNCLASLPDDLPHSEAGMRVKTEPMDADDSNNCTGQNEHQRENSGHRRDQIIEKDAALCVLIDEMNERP
UniProt O00255, whole entry, looked up: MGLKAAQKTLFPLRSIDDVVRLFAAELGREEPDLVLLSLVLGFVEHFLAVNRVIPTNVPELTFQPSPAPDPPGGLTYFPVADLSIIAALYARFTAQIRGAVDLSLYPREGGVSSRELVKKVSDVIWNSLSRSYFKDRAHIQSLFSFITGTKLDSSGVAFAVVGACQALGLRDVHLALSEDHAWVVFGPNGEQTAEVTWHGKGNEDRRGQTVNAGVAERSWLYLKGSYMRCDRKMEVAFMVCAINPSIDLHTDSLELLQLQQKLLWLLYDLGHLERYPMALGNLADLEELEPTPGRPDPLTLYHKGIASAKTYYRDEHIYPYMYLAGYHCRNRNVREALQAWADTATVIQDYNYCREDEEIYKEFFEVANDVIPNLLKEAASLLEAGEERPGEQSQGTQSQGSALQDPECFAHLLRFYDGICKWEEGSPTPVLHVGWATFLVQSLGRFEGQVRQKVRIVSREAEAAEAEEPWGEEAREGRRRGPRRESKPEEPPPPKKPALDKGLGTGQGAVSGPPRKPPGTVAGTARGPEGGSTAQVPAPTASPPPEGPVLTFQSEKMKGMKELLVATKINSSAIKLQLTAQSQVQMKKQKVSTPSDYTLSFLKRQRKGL
UniProt Q8IWA4: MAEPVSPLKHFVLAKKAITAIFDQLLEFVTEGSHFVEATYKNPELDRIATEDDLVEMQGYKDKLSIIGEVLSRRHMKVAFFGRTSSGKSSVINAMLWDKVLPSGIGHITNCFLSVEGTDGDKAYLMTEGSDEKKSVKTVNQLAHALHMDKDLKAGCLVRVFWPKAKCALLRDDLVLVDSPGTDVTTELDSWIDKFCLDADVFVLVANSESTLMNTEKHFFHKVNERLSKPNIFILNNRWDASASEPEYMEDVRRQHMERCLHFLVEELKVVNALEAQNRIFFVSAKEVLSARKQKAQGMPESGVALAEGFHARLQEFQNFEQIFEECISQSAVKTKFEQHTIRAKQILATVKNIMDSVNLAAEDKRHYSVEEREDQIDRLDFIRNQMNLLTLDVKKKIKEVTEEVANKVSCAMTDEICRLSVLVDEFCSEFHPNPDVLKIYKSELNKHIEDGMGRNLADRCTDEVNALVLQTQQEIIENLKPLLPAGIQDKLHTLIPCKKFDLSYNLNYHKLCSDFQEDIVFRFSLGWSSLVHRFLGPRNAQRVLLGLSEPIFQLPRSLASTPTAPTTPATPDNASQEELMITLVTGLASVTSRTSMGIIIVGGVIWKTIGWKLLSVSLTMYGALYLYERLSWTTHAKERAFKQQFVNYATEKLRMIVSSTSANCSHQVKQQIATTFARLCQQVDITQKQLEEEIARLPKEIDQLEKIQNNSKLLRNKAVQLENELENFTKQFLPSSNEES
UniProt Q9Y2X0: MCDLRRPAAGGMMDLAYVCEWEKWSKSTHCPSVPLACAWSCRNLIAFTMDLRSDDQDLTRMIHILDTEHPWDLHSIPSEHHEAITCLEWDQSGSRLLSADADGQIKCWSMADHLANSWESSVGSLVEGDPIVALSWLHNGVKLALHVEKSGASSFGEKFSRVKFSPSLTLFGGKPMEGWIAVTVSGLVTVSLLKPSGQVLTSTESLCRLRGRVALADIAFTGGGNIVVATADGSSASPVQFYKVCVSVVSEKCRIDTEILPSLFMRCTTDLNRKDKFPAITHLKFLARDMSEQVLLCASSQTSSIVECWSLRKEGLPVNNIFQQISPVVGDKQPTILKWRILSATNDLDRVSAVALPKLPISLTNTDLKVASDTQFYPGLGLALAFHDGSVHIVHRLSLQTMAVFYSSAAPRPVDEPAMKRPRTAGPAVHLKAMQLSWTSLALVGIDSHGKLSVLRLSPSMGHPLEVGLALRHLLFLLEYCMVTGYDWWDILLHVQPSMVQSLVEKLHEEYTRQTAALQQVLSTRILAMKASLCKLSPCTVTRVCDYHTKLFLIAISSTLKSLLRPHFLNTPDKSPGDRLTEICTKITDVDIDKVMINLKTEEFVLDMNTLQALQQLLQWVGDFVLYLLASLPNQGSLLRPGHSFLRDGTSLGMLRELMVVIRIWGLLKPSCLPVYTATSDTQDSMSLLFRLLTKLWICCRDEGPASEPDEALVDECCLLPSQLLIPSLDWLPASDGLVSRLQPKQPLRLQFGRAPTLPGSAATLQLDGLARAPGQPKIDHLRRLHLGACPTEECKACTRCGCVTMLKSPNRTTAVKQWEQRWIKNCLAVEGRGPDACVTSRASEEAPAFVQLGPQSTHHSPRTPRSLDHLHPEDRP
UniProt Q93074, whole entry, looked up: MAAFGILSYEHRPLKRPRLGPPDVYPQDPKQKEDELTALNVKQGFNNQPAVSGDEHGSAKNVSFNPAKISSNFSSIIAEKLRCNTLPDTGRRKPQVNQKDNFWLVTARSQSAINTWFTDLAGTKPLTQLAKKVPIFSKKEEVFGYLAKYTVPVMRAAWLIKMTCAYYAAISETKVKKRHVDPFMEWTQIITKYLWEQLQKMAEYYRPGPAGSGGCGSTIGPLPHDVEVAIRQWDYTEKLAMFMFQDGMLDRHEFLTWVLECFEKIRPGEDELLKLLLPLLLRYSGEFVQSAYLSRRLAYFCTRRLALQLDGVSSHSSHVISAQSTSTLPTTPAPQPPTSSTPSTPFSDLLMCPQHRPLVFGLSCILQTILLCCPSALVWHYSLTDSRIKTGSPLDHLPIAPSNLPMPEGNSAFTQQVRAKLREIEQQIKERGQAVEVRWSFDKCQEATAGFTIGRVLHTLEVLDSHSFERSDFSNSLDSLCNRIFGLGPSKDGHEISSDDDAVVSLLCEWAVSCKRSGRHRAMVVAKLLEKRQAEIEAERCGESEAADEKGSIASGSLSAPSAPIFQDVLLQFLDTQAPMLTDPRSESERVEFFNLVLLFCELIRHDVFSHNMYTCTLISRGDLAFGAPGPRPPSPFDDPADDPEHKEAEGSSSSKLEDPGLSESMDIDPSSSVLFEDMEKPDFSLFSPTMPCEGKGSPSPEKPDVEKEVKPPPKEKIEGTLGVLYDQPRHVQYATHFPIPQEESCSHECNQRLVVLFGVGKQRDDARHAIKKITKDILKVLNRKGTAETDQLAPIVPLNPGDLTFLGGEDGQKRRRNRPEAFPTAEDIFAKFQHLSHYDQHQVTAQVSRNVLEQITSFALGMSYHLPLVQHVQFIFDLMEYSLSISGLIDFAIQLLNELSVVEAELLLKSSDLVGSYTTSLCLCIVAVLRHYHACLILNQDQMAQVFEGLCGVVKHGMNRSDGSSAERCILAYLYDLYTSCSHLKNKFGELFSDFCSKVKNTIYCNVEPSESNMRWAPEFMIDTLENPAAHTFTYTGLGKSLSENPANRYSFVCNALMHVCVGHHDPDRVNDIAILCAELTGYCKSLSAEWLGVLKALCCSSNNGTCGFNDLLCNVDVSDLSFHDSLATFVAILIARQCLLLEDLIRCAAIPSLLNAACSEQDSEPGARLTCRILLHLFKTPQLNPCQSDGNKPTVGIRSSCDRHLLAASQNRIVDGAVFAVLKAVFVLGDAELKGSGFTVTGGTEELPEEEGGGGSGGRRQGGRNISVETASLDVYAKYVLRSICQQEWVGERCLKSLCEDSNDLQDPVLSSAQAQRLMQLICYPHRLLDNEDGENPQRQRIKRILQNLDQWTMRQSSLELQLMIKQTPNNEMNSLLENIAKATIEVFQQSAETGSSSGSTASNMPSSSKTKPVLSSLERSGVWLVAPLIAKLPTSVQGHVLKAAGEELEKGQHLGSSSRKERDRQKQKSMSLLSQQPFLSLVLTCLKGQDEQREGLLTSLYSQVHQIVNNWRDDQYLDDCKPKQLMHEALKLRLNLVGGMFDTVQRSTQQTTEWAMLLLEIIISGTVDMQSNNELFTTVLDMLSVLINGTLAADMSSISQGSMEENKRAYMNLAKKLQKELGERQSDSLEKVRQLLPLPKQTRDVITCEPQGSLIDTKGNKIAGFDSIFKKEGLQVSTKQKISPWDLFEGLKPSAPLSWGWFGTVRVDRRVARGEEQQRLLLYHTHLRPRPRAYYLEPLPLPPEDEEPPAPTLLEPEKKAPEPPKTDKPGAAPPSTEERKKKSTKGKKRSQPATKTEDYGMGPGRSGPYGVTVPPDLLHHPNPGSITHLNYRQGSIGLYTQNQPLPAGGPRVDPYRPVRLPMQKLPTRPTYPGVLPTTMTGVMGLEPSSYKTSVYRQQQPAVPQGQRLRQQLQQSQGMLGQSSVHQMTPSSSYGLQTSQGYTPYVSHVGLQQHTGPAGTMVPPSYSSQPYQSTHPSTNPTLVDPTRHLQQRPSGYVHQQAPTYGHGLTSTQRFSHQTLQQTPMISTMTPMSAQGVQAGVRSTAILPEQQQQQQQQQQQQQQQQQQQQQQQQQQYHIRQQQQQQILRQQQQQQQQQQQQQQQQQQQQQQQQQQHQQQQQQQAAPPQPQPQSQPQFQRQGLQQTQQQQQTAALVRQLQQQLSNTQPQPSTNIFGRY
UniProt Q8IVS2: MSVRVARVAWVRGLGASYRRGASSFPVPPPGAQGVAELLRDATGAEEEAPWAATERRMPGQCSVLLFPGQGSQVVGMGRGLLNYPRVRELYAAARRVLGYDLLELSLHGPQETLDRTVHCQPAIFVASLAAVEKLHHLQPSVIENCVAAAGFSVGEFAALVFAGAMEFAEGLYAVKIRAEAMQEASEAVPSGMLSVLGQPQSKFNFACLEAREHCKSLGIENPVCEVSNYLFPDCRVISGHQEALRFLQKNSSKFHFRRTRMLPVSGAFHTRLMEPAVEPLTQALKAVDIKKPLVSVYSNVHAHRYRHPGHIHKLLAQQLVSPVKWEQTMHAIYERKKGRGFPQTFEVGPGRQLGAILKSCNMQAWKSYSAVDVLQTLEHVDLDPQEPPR

Experiments:
Test in all cases: log2 fold change, soluble protein after heating vs DMSO (PISA); higher = thermal stabilisation; K562 lysate, 10 uM; active = over 0.2 and 3.5 SD of the protein, either way, in both replicates (recomputed)
[1] = compound: Cc1cn(-c2cc(NC(=O)c3ccc(C)c(Nc4nccc(-c5cccnc5)n4)c3)cc(C(F)(F)F)c2)cn1 [nilotinib]
Summary of the method: (§1)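 K562 pellets were dounce-homogenised in PBS pH 7.4 with 1 mM MgCl2, and the crude extract at 1 mg/mL protein was treated with 10 μM compound for 30 min. Aliquots were heated for 3 min across 48°C-58°C, pooled, and brought to 0.5% NP-40 at 4°C; soluble protein was the supernatant after 21,000xg for 90 min. Soluble protein was quantified by TMTpro 16plex LC-MS/MS with channel sums equalised, and reported as log2 fold change in thermal stability against DMSO controls, with values from duplicates.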

[2] = compound: Cc1nc(Nc2n[nH]c3c2CN(C(=O)N[C@H](CN(C)C)c2ccccc2)C3(C)C)c2sccc2n1
Summary of the method: as §1

[3] = compound: Cc1nc(Nc2ncc(C(=O)Nc3c(C)cccc3Cl)s2)cc(N2CCN(CCO)CC2)n1 [dasatinib]
Summary of the method: as §1

[4] = compound: Cc1ncc(-c2ccnc(Nc3ccc(S(C)(=O)=O)cc3)n2)n1C(C)C
Summary of the method: as §1

[5] = compound: Cn1cc(-c2ccc3c(c2)CCN3C(=O)Cc2cccc(C(F)(F)F)c2)c2c(N)ncnc21
Summary of the method: as §1

[6] = compound: Cn1cc(CNCC2CCN(c3ncc(C(=O)NO)cn3)CC2)c2ccccc21 [quisinostat]
Summary of the method: as §1

[7] = compound: Cn1cncc1[C@@](N)(c1ccc(Cl)cc1)c1ccc2c(c1)c(-c1cccc(Cl)c1)cc(=O)n2C [tipifarnib]
Summary of the method: as §1

[8] = compound: NC(=O)Nc1cc(-c2cccc(F)c2)sc1C(=O)N[C@H]1CCCNC1
Summary of the method: as §1

[9] = compound: NC(=O)c1cnc(N[C@@H]2CCCC[C@@H]2N)nc1Nc1cccc(-n2nccn2)c1
Summary of the method: as §1

[10] = compound: NC1(c2ccc(-c3nc4ccn5c(=O)[nH]nc5c4cc3-c3ccccc3)cc2)CCC1
Summary of the method: as §1

[11] = compound: NCC(=O)Nc1ccc(-n2nc(C(F)(F)F)cc2-c2ccc3c(ccc4ccccc43)c2)cc1
Summary of the method: as §1

[12] = compound: O=C(CCCCCCC(=O)Nc1ccccc1)NO [vorinostat]
Summary of the method: as §1

[13] = compound: O=C(O)c1ccc2c(c1)nc(Nc1cccc(Cl)c1)c1ccncc12 [silmitasertib]
Summary of the method: as §1

[14] = compound: O=C1NC(=O)C(c2cnc3ccccn23)=C1c1cn2c3c(cc(F)cc13)CN(C(=O)N1CCCCC1)CC2
Summary of the method: as §1

[15] = compound: c1cn2cc(-c3ccc4cn[nH]c4c3)nc(Nc3ccc(N4CCOCC4)cc3)c2n1 [entospletinib]
Summary of the method: as §1

Measured: log2 fold change

MCAM (UniProt P43121)
inactive: [1] 0.028 | [2] -0.008 | [3] 0.023 | [4] 0.013 | [5] -0.023 | [6] 0.016 | [7] 0.011 | [8] 0.029 | [9] 0.001 | [10] -0.015 | [11] 0.046 | [12] 0.138 | [13] -0.011 | [14] -0.022 | [15] 0.008

MBNL1 isoform 5 (UniProt Q9NR56)
inactive: [1] 0.012 | [2] -0.004 | [3] -0.077 | [4] -0.067 | [5] 0.004 | [6] 0.034 | [7] -0.061 | [8] -0.044 | [9] 0.02 | [10] 0.074 | [11] -0.032 | [12] -0.068 | [13] 0.03 | [14] -0.057 | [15] 0.001

MEMO1 (UniProt Q9Y316)
inactive: [1] 0.031 | [2] 0.018 | [3] -0.033 | [4] 0.03 | [5] 0.008 | [6] 0.031 | [7] 0.023 | [8] 0.046 | [9] -0.002 | [10] -0.021 | [11] -0.015 | [12] 0.043 | [13] 0 | [14] 0.015 | [15] -0.016

MED7 (UniProt O43513)
inactive: [1] -0.096 | [2] 0.168 | [3] -0.056 | [4] 0.014 | [5] -0.038 | [6] -0.015 | [7] 0.077 | [8] 0.078 | [9] 0.027 | [10] 0.155 | [11] 0.096 | [12] -0.063 | [13] 0.003 | [14] -0.007 | [15] -0.12

MEN1 (UniProt O00255)
inactive: [1] 0.287 | [2] -0.208 | [3] -0.144 | [4] -0.004 | [5] -0.006 | [6] -0.09 | [7] -0.005 | [8] 0.075 | [9] 0.224 | [10] -0.033 | [11] -0.052 | [12] -0.234 | [13] 0.046 | [14] 0.217 | [15] 0.07

Fetched one by one from above (two):
MBNL1 isoform 5 (UniProt Q9NR56)
inactive: [1] 0.012 | [2] -0.004 | [3] -0.077 | [4] -0.067 | [5] 0.004 | [6] 0.034 | [7] -0.061 | [8] -0.044 | [9] 0.02 | [10] 0.074 | [11] -0.032 | [12] -0.068 | [13] 0.03 | [14] -0.057 | [15] 0.001

MEMO1 (UniProt Q9Y316)
inactive: [1] 0.031 | [2] 0.018 | [3] -0.033 | [4] 0.03 | [5] 0.008 | [6] 0.031 | [7] 0.023 | [8] 0.046 | [9] -0.002 | [10] -0.021 | [11] -0.015 | [12] 0.043 | [13] 0 | [14] 0.015 | [15] -0.016

Following part.

MFN1 (UniProt Q8IWA4)
inactive: [1] 0.014 | [2] 0.071 | [3] -0.018 | [4] 0.1 | [5] -0.018 | [6] -0.184 | [7] -0.012 | [8] 0.047 | [9] 0.072 | [10] -0.009 | [11] -0.064 | [12] -0.277 | [13] 0.004 | [14] -0.035 | [15] 0.027

MED16 (UniProt Q9Y2X0)
active: [12] -0.354
inactive: [1] -0.019 | [2] 0.01 | [3] -0.026 | [4] 0.023 | [5] -0.016 | [6] -0.01 | [7] 0.008 | [8] -0.013 | [9] 0.023 | [10] -0.047 | [11] -0.005 | [13] 0.052 | [14] -0.022 | [15] 0.016

MED12 isoform 2 (UniProt Q93074)
active: [12] -0.466
inactive: [1] -0.017 | [2] -0.025 | [3] -0.024 | [4] -0.009 | [5] 0.01 | [6] -0.05 | [7] 0.005 | [8] 0.034 | [9] 0.019 | [10] 0.002 | [11] 0.003 | [13] -0.044 | [14] -0.008 | [15] -0.012

MCRIP1 (UniProt I3L4Q0)
inactive: [1] 0.014 | [2] 0.048 | [3] 0.011 | [4] 0.026 | [5] 0.024 | [6] -0.126 | [7] -0.032 | [8] -0.008 | [9] -0.047 | [10] 0 | [11] -0.033 | [12] 0.137 | [13] -0.012 | [14] -0.073 | [15] -0.034

MCAT (UniProt Q8IVS2)
inactive: [1] 0.051 | [2] 0.005 | [3] 0.056 | [4] -0.037 | [5] 0.054 | [6] -0.008 | [7] 0.02 | [8] -0.021 | [9] -0.001 | [10] -0.004 | [11] -0.05 | [12] 0.063 | [13] -0.053 | [14] 0.002 | [15] -0.021
